One substance from article PMC8759595 can be followed below.

These are yes or no findings as the source states them, for the method shown. In cells and extracts the contact can be indirect. Binding can be weak; no strength is given. Where a sequence is shown, tags or fusion partners need not be part of it.

This experiment has as its target T1, Myc-ACBD5 S259E (UniProt Q5T8D3).
T1 sequence: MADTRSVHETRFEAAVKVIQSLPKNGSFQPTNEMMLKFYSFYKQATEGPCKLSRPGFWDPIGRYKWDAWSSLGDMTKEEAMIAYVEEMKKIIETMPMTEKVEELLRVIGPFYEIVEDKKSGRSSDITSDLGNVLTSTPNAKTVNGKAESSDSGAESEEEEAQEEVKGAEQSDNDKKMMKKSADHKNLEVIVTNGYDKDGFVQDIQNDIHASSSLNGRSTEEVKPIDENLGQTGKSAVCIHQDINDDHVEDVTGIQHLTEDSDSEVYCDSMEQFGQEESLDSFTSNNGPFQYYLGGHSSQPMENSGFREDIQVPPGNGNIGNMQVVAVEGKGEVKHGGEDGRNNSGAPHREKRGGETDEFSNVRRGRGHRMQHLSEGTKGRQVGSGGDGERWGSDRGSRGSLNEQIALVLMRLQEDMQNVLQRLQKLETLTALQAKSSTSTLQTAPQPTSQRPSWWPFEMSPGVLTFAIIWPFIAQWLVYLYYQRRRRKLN
The experiment is described as follows: co-IP; Myc-ACBD5 constructs in COS-7 lysates treated with or without λPP for 1 h, then Myc-TRAP magnetic agarose beads 1 h at 4°C; endogenous VAPB by immunoblot (Fig. 1 C, methods in p-0042; Fig. 2 D and E). A general note: Immunoblotting shows a protein as a band on a membrane.

In the case of endogenous VAPB (COS-7 cells), the binding entry is recorded as “binds”.
